Binding data for one molecule are collected here from paper PMC8278106.

Results are given in words; binding and its absence hold for the method and conditions named. In cells and extracts the contact can be indirect. A result given as binding can be weak or reduced; the word gives no strength.

This experiment concerns the target HIV-1 transactivator of transcription (Tat) (HIV-1). In words: co-IP; HT1080 cells co-transfected with pcDNA-Tat and pCMV-JunB, lysed in RIPA buffer; 200 ug protein precipitated with anti-HIV-1 Tat antibody (ab43014 or NIH 2A4.1) and protein A agarose, overnight at 4°C; blot with anti-JunB; control IgG as negative control.

B1: AP-1 factor JunB (protein, UniProt P17275 1-347)
chain: MCTKMEQPFYHDDSYTATGYGRAPGGLSLHDYKLLKPSLAVNLADPYRSLKAPGARGPGPEGGGGGSYFSGQGSDTGASLKLASSELERLIVPNSNGVITTTPTPPGQYFYPRGGGSGGGAGGAGGGVTEEQEGFADGFVKALDDLHKMNHVTPPNVSLGATGGPPAGPGGVYAGPEPPPVYTNLSSYSPASASSGGAGAAVGTGSSYPTTTISYLPHAPPFAGGHPAQLGLGRGASTFKEEPQTVPEARSRDATPPVSPINMEDQERIKVERKRLRNRLAATKCRKRKLERIARLEDKVKTLKAENAGLSSTAGLLREQVAQLKQKVMTHVSNGCQLLLGVKGHAF
For the molecule B1, the binding entry is listed as “binds”.
